Results reported in US8828941 (KUNOVUS, dated 2014).
No constants are given. Whether binding was seen depends on the method and setting. Some binding calls cover weakened binding; strength is not graded here. Tags and fused reporters may be left off the sequences shown.

Target: full-length GDF-6 fused to a FLAG tag, expressed in CHO cells (human) (UniProt Q6KF10)
Test: non-reducing PAGE of protein from CHO cells

B1: full-length GDF-6 fused to a FLAG tag, expressed in CHO cells (ligand, human, UniProt Q6KF10 336-455, looked up, not shown: small tags and cut ends)
chain: TAFASRHGKRHGKKSRLRCSKKPLHVNFKELGWDDWIIAPLEYEAYHCEGVCDFPLRSHLEPTNHAIIQTLMNSMDPGSTPPSCCVPTKLTPISILYIDAGNNVVYKQYEDMVVESCGCR
- binding: binds
